Laboratory results: PubChem BioAssay AID1053208 (Peter MacCallum Cancer Centre, 2014)

Assay: 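Genes whose silencing cuts survival of bone tumour cells only with doxorubicin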 (primary screen)
Cells: mouse osteosarcoma cells, early-passage culture from an engineered mouse model of fibroblastic bone tumour
Reagents: siRNA pool against mouse genes, 40 nM
Timing: about 120 h (48 h before drug, then 72 h with drug)
Conditions: doxorubicin 100 nM for 72 h, roughly 30-40% inhibitory dose
Measured: 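Luminescent ATP signal taken as viability with or without 100 nM doxorubicin for 72 h; mean of two wells set against non-targeting siRNA and turned into robust z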
Scale: viability z-score with doxorubicin: higher = more viable cells under doxorubicin; viability z-score without drug: higher = more viable cells with knock-down alone
Hit rule: 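a pool counts as active when its viability z-score with doxorubicin is -2 or below and its z-score without drug lies between -2 and 2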
The deposit covers about 17,000 reagents; this is a part drawn at random. 788 of all reagents (4.7%) count as active. 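Calls rest on z-score classes alone; an extra cut-off of viability at most 70% of control was not applied to them.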 Entries without a mark were called inactive. Not all columns of the deposit are shown. Reagent sequences are not shown.

gene,combined z-score class,viability z-score with doxorubicin,viability z-score without drug
Vwa7,no change with or without drug,0.56,1.18
Ago3,no change with or without drug,-0.22,0.51
Aoc1,high cell count without drug only,0.9,2.02
Rad51c,no change with or without drug,0.9,-1.01
Pja1,no change with or without drug,0.45,1.18
Or51v14,no change with or without drug,-0.45,-0.84
Dctn4,no change with or without drug,1.12,-0.51
Ecd,no change with or without drug,-1.57,-1.85
Nrn1l,no change with or without drug,1.69,0.84
Mvp,no change with or without drug,0,-0.17
Mmp17,no change with or without drug,-0.11,-0.17
Sgk3,no change with or without drug,0.45,1.52
Scnn1g,no change with or without drug,-1.35,-0.34
Map2k3,no change with or without drug,-0.56,1.52
Or4c100,no change with or without drug,-0.45,-0.84
Gstk1,no change with or without drug,0.9,0.51
Or4k42,no change with or without drug,0.9,1.85
Slc35d1,no change with or without drug,-1.12,-1.52
Or1e33,no change with or without drug,-1.24,1.01
Rp2,no change with or without drug,1.57,1.18
Kcnv2,low cell count without drug only,-0.22,-2.53
Cnot4,no change with or without drug,0.67,0.17
Or5b12b,no change with or without drug,-0.45,-0.17
Fxr2,no change with or without drug,0.22,-0.17
Mdfi,no change with or without drug,1.12,1.01
Zfp871,no change with or without drug,-0.22,-0.34
Spata3,high cell count without drug only,1.35,2.19
Magea4,no change with or without drug,0,0.67
Adora1,no change with or without drug,0.9,0.17
Ggt1,no change with or without drug,0.56,-0.17
Cckbr,no change with or without drug,-0.45,0.17
Brap,no change with or without drug,0.9,-0.17
Perp,no change with or without drug,0.11,0.17
Klf4,no change with or without drug,0.79,1.01
Or13c25,no change with or without drug,-0.11,-0.17
Zmym1,no change with or without drug,-0.56,-0.84
Tfr2,no change with or without drug,-0.67,0.17
Arhgef9,no change with or without drug,0.22,1.18
Tenm2,no change with or without drug,0.67,-0.51
Fbxw8,no change with or without drug,0.22,0.84
Asb16,no change with or without drug,-1.12,-1.18
Dqx1,no change with or without drug,0.45,0.67
Magix,low cell count with doxorubicin only (active),-2.59,-1.85
Ccdc39,low cell count without drug only,-0.22,-2.53
Lrp2bp,low cell count with doxorubicin only (active),-2.92,1.01
Clps,no change with or without drug,-0.67,-0.51
Or5al7,no change with or without drug,-0.11,-0.51
Dhrs9,high cell count with doxorubicin only,2.25,0.34
Zfp52,no change with or without drug,-0.9,0.17
4930503L19Rik,no change with or without drug,-0.67,1.18
